Test results: PMC4758748
Results are given in words; binding and its absence hold for the method and conditions named. For some of these results: Binding seen in cells or lysates may run through a third protein. Some results given as binding are weak or reduced against the parent protein; the word gives no strength. Sequences can lack the tags named with a protein.

Tests used:
[1] = biological target: T1, Streptag-Chs2-215-629 (S. cerevisiae) (UniProt P14180); assay: pull-down; three E. coli cultures (6His-Inn1, Strep-tag-Chs2-215-629, untagged Cyk3) mixed, one common cell extract; Strep-Tactin Superflow, then Ni-NTA agarose; immunoblot with anti-Streptag, anti-His and anti-Cyk3
T1 sequence: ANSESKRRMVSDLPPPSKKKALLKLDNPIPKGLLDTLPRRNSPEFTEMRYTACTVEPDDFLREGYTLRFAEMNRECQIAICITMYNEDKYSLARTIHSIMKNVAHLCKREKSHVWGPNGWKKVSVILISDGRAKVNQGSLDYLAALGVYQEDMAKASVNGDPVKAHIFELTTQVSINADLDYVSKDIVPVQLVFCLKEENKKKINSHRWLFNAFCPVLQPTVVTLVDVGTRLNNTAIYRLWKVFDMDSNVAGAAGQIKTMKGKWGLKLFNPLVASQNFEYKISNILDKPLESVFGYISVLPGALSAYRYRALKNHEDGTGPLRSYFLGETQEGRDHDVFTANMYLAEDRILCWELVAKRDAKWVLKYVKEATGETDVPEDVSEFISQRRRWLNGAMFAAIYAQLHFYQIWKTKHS

[2] = biological target: T2, Chs2-1-629 (recombinant, E. coli) (S. cerevisiae) (UniProt P14180); assay: pull-down; E. coli cultures expressing a Streptag fusion and a 6His fusion mixed after IPTG induction, one common cell extract with two recombinant proteins; Strep-Tactin Superflow (eluted with 2.5 mM d-Desthiobiotin), then Ni-NTA agarose (eluted with 250 mM imidazole); SDS-PAGE, Coomassie, immunoblot (anti-Streptag, anti-His), mass spectrometry of the band
T2 sequence: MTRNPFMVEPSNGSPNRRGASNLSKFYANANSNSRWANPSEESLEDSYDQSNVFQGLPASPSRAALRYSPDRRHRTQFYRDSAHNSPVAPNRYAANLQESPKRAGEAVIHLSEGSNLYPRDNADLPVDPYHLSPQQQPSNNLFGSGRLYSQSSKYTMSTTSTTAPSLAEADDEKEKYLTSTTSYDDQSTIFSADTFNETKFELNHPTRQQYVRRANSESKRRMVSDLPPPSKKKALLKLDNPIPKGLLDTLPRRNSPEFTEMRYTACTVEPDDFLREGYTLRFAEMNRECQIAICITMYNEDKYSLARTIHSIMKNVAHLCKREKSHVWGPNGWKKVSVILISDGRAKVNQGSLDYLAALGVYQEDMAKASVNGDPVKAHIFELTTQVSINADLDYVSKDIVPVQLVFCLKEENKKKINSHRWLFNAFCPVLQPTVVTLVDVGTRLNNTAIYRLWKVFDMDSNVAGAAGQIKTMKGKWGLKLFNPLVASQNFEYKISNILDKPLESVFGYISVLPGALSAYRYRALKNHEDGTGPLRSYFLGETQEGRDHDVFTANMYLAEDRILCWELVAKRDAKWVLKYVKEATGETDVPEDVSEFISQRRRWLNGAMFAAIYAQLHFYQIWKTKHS

[3] = biological target: T1, Streptag-Chs2-215-629 (S. cerevisiae); assay: as above
[4] = biological target: T3, C-terminus of Inn1 (134-409) (two-hybrid fusion) (S. cerevisiae) (UniProt P53901); assay: two-hybrid; vectors pGADT7 and pGBKT7 (Clontech); growth for two or three days at 30°C on Synthetic Complete medium lacking leucine, tryptophan and histidine (selective)
T3 sequence: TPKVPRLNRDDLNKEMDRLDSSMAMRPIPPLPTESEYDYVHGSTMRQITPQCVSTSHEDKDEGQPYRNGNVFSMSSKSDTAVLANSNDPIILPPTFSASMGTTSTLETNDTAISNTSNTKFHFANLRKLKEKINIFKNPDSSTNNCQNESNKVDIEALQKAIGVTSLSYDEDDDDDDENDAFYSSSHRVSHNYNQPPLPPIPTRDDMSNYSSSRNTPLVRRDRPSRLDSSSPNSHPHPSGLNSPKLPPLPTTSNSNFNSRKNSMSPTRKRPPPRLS

[5] = biological target: T4, Chs2-1-629 (two-hybrid fusion) (S. cerevisiae) (UniProt P14180); assay: as above
T4 sequence: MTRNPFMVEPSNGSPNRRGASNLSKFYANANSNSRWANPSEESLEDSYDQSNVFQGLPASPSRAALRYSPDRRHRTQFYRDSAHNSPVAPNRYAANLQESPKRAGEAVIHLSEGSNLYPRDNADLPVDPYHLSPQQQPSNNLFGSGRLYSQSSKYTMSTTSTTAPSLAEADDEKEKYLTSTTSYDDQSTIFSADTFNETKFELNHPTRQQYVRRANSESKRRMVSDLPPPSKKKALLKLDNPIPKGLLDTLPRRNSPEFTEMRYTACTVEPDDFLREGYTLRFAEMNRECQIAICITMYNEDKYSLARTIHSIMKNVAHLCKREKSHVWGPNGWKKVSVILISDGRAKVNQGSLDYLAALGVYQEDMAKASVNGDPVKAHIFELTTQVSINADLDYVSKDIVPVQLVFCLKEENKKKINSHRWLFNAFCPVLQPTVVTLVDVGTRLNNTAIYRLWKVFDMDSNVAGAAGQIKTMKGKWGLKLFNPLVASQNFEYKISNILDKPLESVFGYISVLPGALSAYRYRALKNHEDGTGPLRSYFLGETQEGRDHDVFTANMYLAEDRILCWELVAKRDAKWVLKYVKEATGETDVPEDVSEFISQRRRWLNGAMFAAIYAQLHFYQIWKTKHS

[6] = biological target: T5, 6His-tagged Inn1 (S. cerevisiae) (UniProt P53901); assay: pull-down; three E. coli cultures (6His-Inn1, Strep-tag-Chs2-215-629, untagged Cyk3) mixed, one common cell extract; Strep-Tactin Superflow, then Ni-NTA agarose; immunoblot with anti-Streptag, anti-His and anti-Cyk3
T5 sequence: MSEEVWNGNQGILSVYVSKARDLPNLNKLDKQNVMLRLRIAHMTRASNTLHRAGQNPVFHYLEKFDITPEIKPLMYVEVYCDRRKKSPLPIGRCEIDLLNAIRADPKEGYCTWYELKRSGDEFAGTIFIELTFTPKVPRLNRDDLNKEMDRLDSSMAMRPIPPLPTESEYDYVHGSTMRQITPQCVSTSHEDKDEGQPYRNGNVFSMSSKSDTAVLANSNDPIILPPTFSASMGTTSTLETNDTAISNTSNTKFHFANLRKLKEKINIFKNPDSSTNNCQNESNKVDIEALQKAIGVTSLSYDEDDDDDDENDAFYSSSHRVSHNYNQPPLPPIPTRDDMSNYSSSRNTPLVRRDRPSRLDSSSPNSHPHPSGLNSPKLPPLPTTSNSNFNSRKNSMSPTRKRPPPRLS

[7] = biological target: T6, Chs2-1-215 (two-hybrid fusion) (S. cerevisiae) (UniProt P14180); assay: two-hybrid; vectors pGADT7 and pGBKT7 (Clontech); growth for two or three days at 30°C on Synthetic Complete medium lacking leucine, tryptophan and histidine (selective)
T6 sequence: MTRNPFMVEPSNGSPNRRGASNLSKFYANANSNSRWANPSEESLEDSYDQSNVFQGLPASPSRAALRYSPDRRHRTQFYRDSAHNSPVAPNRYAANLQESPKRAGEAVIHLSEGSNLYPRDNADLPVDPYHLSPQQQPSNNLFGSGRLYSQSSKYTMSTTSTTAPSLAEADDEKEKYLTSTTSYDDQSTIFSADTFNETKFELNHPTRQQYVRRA

[8] = biological target: T7, Chs2-215-629 (two-hybrid fusion) (S. cerevisiae) (UniProt P14180); assay: as above
T7 sequence: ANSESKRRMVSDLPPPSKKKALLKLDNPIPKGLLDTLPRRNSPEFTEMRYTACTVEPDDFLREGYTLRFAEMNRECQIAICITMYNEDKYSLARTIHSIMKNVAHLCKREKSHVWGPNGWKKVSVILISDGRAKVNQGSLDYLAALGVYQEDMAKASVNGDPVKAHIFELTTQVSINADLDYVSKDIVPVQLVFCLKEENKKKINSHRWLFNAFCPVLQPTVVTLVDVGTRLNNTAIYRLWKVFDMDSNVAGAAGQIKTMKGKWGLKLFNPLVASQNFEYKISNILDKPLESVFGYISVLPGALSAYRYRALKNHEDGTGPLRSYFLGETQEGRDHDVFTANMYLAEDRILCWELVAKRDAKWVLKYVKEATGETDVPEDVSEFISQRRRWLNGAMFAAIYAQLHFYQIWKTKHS

B1: 6His-tagged Inn1 (protein, UniProt P53901 1-409)
chain: MSEEVWNGNQGILSVYVSKARDLPNLNKLDKQNVMLRLRIAHMTRASNTLHRAGQNPVFHYLEKFDITPEIKPLMYVEVYCDRRKKSPLPIGRCEIDLLNAIRADPKEGYCTWYELKRSGDEFAGTIFIELTFTPKVPRLNRDDLNKEMDRLDSSMAMRPIPPLPTESEYDYVHGSTMRQITPQCVSTSHEDKDEGQPYRNGNVFSMSSKSDTAVLANSNDPIILPPTFSASMGTTSTLETNDTAISNTSNTKFHFANLRKLKEKINIFKNPDSSTNNCQNESNKVDIEALQKAIGVTSLSYDEDDDDDDENDAFYSSSHRVSHNYNQPPLPPIPTRDDMSNYSSSRNTPLVRRDRPSRLDSSSPNSHPHPSGLNSPKLPPLPTTSNSNFNSRKNSMSPTRKRPPPRLS
- binding [1]: binds
- binding [2]: binds
- binding [3]: binds

B2: Cyk3 SH3 domain (two-hybrid fusion) (domain or fragment, UniProt Q07533 9-70)
chain: KPPFKVKARYGWSGQTKGDLGFLEGDIMEVTRIAGSWFYGKLLRNKKCSGYFPHNFVILLEE
- binding [4]: binds
- binding [5]: no binding

B3: untagged Cyk3 (recombinant, E. coli) (protein, UniProt Q07533 1-885)
chain: MATNLTSLKPPFKVKARYGWSGQTKGDLGFLEGDIMEVTRIAGSWFYGKLLRNKKCSGYFPHNFVILLEERLNSSTENGRQPSKIVESFEKSNKVVIPPVPSRYSDERPRPKKKLSSSMPNSPKKPVDSLTKARKAKSKEMVNEKNIYNTQSSRHHNNSAPNLPLASHSKPQVRNFEESMNNPLPPLPPLPDLDNMRKTDKRAPKKSYSANDLHMARSSREYNYYKDNQKFYDGFIPEKRYSLEEDSISSGLFSNSQYLNDSACSSENSFALMSDFSATSAGSFARHKYAQSFSDSLQRSQNANGCSTKINDSQEFGDSNASSRNGKMGDILRKIIIPKRNTNIYSSSVSSPKSPKAYPKLPDIQNLNLSATPDEARDWIAVKCHLNRARTLTKYDKHPRYMRALEENRDLILHPQDSIYNGLNTNEVKGNTKPGLVDVELAELNIEYIDKMTWKRCIRDGTMTLDSWAQTTFSARYSTVLEKLRGIYIFCTEMFALTDDNGTSDFSAEPQNLEKILYRKHCTPYELTWLFKKLANSLGITCEIVIGFLKTPSAINWEFKYNHCWLRILVNKEWRFIDVILGNVTNPIHEFVNNRKIKKAENSYFLMAPLEMIYTHIPPREFEQHIVPSIDQLSALYLPLVFPSFFKNELKLYKFSTALSFLEDSEIYECSLEIPNDVEVFASVVIPTDNEEASSAYRNMELALTQIKKQKAESGRRIALIKAVLPPNVNKGSLYIHSGVRGTQTSIANIHPLSMMVPLTHKGSNMKYEFVIKIPSESIQKIELYIVEPQSRYLFVGNEYSFEVIQSPSDGIVYSSDEGPNQNRKQPMAIKSPSGRVHELVKSDPHFPYGTWKGSIKIKEPGVWSALVIADSGIGWSVFAEWLCV
- binding [6]: binds
- binding [1]: binds

B4: C-terminus of Inn1 (134-409) (two-hybrid fusion) (domain or fragment, UniProt P53901 134-409)
chain: TPKVPRLNRDDLNKEMDRLDSSMAMRPIPPLPTESEYDYVHGSTMRQITPQCVSTSHEDKDEGQPYRNGNVFSMSSKSDTAVLANSNDPIILPPTFSASMGTTSTLETNDTAISNTSNTKFHFANLRKLKEKINIFKNPDSSTNNCQNESNKVDIEALQKAIGVTSLSYDEDDDDDDENDAFYSSSHRVSHNYNQPPLPPIPTRDDMSNYSSSRNTPLVRRDRPSRLDSSSPNSHPHPSGLNSPKLPPLPTTSNSNFNSRKNSMSPTRKRPPPRLS
- binding [7]: binds
- binding [5]: binds
- binding [8]: no binding
